Data source: PubChem BioAssay AID504764 (Drosophila RNAi Screening Center, 2011)
In all, the deposit lists about 22,000 reagents; below is an unselected part of those that have a named target and a result. In the full data, 403 (1.9%) are marked active. 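Unnormalised raw counts per well; ratio z-scores behind the hit calls and whether each hit raises or lowers signal are not deposited.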 Reagents against one gene are numbered here. A plus sign joins genes that one reagent is predicted to hit. The record does not give: the amount of reagent.

- Assay: 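Genes whose knock-down alters Notch-dependent transcription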 (primary screen)
- Cell system: Drosophila Kc167 cells
- Reagents: long dsRNA against Drosophila genes
- Timing: about 5 days (4 days dsRNA, then 24 h after transfection)
- Treatment: transfection of constitutively active membrane-tethered Notch lacking the extracellular domain, read 24 h later
- Measured: 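Light from a Notch-responsive E(spl)m3 luciferase reporter under active Notch, with control-promoter and no-Notch reporter wells to normalise; raw counts from paired wells a and b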
- Reading the numbers: induced reporter light, run 1, well a and induced reporter light, run 1, well b: higher = more light from the Notch target reporter with active Notch; control promoter light, run 1, well a and control promoter light, run 1, well b: higher = more light from the viral control promoter (cell number, transfection, viability); uninduced reporter light, run 1, well a: higher = more light from the Notch target reporter without active Notch
- Active means: 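Hit if the duplicate-averaged log2 ratio of induced to control-promoter light gives a plate-wise z beyond ±2, or induced to uninduced beyond ±1.8; weak-control or discordant-duplicate wells dropped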
- Meaning of the calls: active = modifier hit (raised or lowered Notch signal); inactive = not a hit

no.	gene knocked down	reagent	induced reporter light, run 1, well a	induced reporter light, run 1, well b	control promoter light, run 1, well a	control promoter light, run 1, well b	uninduced reporter light, run 1, well a	activity call
1	Not1	1	61285	71715	1.02e5	1.10e5	6270	active
2	Not1	2	49670	45910	60460	64545	4770	inactive
3	Socs16D	1	25230	23150	27200	21725	5910	inactive
4	side	1	1.12e5	1.29e5	1.76e5	1.58e5	11975	inactive
5	side	2	1.12e5	1.00e5	1.45e5	1.24e5	9178	inactive
6	side	3	1.50e5	1.48e5	2.15e5	1.97e5	14005	inactive
7	side	4	1.38e5	1.19e5	1.86e5	1.95e5	12045	inactive
8	side	5	1.12e5	93460	1.49e5	1.12e5	9310	inactive
9	Lime	1	1.20e5	1.47e5	2.16e5	1.71e5	12485	inactive
10	CG9313	1	1.12e5	1.22e5	85070	87955	8495	inactive
11	COX5BL	1	1.61e5	1.40e5	1.73e5	1.48e5	10260	inactive
12	Acn	1	1.50e5	1.51e5	93375	1.16e5	12920	inactive
13	CG14005	1	83185	91965	79695	80550	6790	inactive
14	Hpd	1	1.54e5	1.20e5	73360	79480	10282	inactive
15	CG7130	1	1.25e5	1.02e5	1.06e5	95480	7455	inactive
16	FoxL1	1	1.03e5	1.22e5	1.30e5	1.50e5	5820	inactive
17	Flo2	1	1.03e5	83520	78470	80775	7510	inactive
18	Flo2	2	65935	76145	60980	57310	9900	inactive
19	Rcd2	1	72880	53180	46960	50225	4745	inactive
20	Art4	1	40840	52535	56770	39530	3132	inactive
21	CG10939	1	1.03e5	1.15e5	1.83e5	2.43e5	10460	inactive
22	CG10939	2						inactive
23	CG6928	1	85460	91960	62525	30830	8665	inactive
24	ReepB	1	1.89e5	1.30e5	1.49e5	1.94e5	12442	inactive
25	CG5196	1	87320	84225	65320	51820	4850	inactive
26	Swip-1	1	2.85e5	2.01e5	1.79e5	1.75e5	17132	inactive
27	Swip-1	2	36600	34895	29295	43110	2145	inactive
28	Tsf2	1	1.19e5	92740	82060	43970	9250	inactive
29	CG4009	1	2.04e5	2.19e5	2.51e5	2.41e5	17320	inactive
30	CG30460	1	1.00e5	84905	1.39e5	1.14e5	8370	inactive
31	CG30460	2	5660	9210	9432	9970	3910	inactive
32	DMAP1	1	61225	69875	1.64e5	2.40e5	5440	active
33	CG6661	1	1.55e5	1.69e5	1.35e5	1.61e5	13265	inactive
34	CG1638	1	1.59e5	1.62e5	3.13e5	3.29e5	11855	inactive
35	CG12460 (retired record)	1	72230	76470	64915	89395	9535	inactive
36	amx	1	40905	40295	61760	57585	5315	inactive
37	Hsp83	1	63645	78165	1.31e5	1.16e5	5805	inactive
38	disp	1	75845	82410	72470	53790	6655	inactive
39	RabGGTa	1	1.62e5	1.53e5	1.11e5	1.03e5	12010	inactive
40	Ir76b	1	1.08e5	95845	1.03e5	86945	11020	inactive
41	RpL7A	1	20725	16850	35680	27580	1045	inactive
42	CG18266	1	2.08e5	2.07e5	2.53e5	2.80e5	18615	inactive
43	ase	1	1.37e5	1.49e5	2.15e5	2.57e5	10035	inactive
44	Qsox4	1	79365	76175	80265	61880	7045	inactive
45	eIF3g1	1	8462	9540	10380	13130	650	inactive
46	Hrb27C	1	16480	17015	15915	14070	1410	inactive
47	CG11600	1	11330	6505	9265	6242	2740	inactive
48	CG14000 + bchs	1	93565	97915	83750	79865	7285	inactive
49	Csp	1	1.31e5	1.30e5	64320	77210	9355	inactive
50	phtm	1	76625	98055	96070	1.12e5	10495	inactive
51	alphaCOP	1	40560	31415	52875	53760	2838	inactive
52	CG34126	1	1.48e5	1.41e5	1.78e5	1.75e5	10775	inactive
53	CG9338	1	2.29e5	2.66e5	2.06e5	2.20e5	18300	inactive
54	CG13004	1	30855	29715	23480	22665	3990	inactive
55	CG31141	1	1.90e5	1.93e5	2.27e5	2.39e5	15385	inactive
56	CG8635	1	1.48e5	1.46e5	1.37e5	1.57e5	11840	inactive
57	Nt5b	1	1.70e5	1.27e5	1.53e5	1.12e5	10445	inactive
58	Nt5b	2	66500	55150	61355	67205	9310	inactive
59	Nt5b	3	74245	65725	68765	60205	9110	inactive
60	Ir7e	1	1.88e5	1.97e5	3.12e5	3.75e5	13835	inactive
61	beat-VII	1	1.63e5	1.98e5	1.93e5	1.91e5	16600	inactive
62	beat-VII	2	1.45e5	1.08e5	1.75e5	1.24e5	11445	inactive
63	beat-VII	3	1.27e5	1.38e5	1.53e5	1.54e5	12560	inactive
64	CG1986	1	1.22e5	1.26e5	2.79e5	2.31e5	8632	inactive

4 neighbouring entries already listed:
no.	gene knocked down	reagent	induced reporter light, run 1, well a	induced reporter light, run 1, well b	control promoter light, run 1, well a	control promoter light, run 1, well b	uninduced reporter light, run 1, well a	activity call
12	Acn	1	1.50e5	1.51e5	93375	1.16e5	12920	inactive
13	CG14005	1	83185	91965	79695	80550	6790	inactive
14	Hpd	1	1.54e5	1.20e5	73360	79480	10282	inactive
15	CG7130	1	1.25e5	1.02e5	1.06e5	95480	7455	inactive
